According to patent US20200124619A1, “BIOMARKERS FOR LIVER FUNCTION” (PharmK Corporation, priority 2017, published 2020):

Assay: Plasma concentration of CP-I and CP-III by LC/MS in healthy subjects and subjects with liver disease (Child-Pugh score 7-9)
Format: in vivo, human
Description: Subjects who were ≥18 years old and have provided prior written informed consent to participated in this study. Group A: six healthy volunteers. Group B: six liver disease subjects who are diagnosed by a licensed physician with Child-Pugh Score (CPT) of 7-9.
Blood was collected in 2×10 mL labeled K2 EDTA Vacutainer tube and then immediately inverted 10 times gently. The tubes were then centrifuged for 15 minutes at 1500 rcf at 4° C. with light protection. The plasma was transferred to cryovials and stored in a dark −70° C. freezer until shipment for analysis.
An aliquot of 50 μL of plasma sample was treated with 0.1% perchloric acid (10:1 v:v) and mixed with 100 μL of acetonitrile containing internal standard (Terfenadine). The mixture was vortexed on a shaker for 15 minutes and subsequently centrifuged at 4000 rpm for 15 minutes. An aliquot of 70 μL of the supernatant was mixed with 70 μL of water for the injection to the LC/MS. Calibration standards and quality control samples were prepared by spiking the CP-I and CP-III into 2.5% BSA in water (treated with 0.1% perchloric acid) and then processed with the unknown samples. CP-I and CP-III calibration standards were prepared at molar concentrations of 0, 0.05, 1, 10, 20, 100 nM each. Separation of CP-I and CP-III was achieved using Shimadzu LC30AD system consisting of a Phenomenex Luna Phenyl-Hexyl column (100×2 mm, 5μ). The system was held at 40° C. and with a constant flow of 0.5 mL/min using a gradient comprising of Mobile phase A (10 mM ammonium formate in water with 0.1% formic acid) and mobile phase B (acetonitrile). The Liquid Chromatography (LC) program starting conditions are 25% B. At 1 minutes % B is increased to 50% over 10 min, and then further increased to 95% in 1 min, maintaining 95% B for 0.8 min and then decreasing to starting conditions (25% B) in 0.2 min and maintaining this until 13.5 min. A Triple Quad™ 5000 mass spectrometer was operated in positive electrospray ionization in MRM mode with the transitions of m/z 655.26>596.3 for CP-I and CP-III, m/z 472.183>436.126 for terfenadine (IS). The chromatographic peaks were processed using Analyst® software (version 1.6.2, AB SCIEX).

SMILES	Maximum fold change of CP-I (subjects with liver disease, over the mean concentration of CP-I in healthy subjects) [fold]	Increase of mean concentration of CP-I in plasma (subjects with liver diseases, Child-Pugh Score 7-9, compared to the healthy subjects, six per group)	CP-III concentration in plasma (group of healthy subjects, LLOQ 0.05 nM)	Mean plasma concentration of CP-III (subjects with liver disease (Child-Pugh Score 7-9)) [nM]
CC1=C(CCC(=O)O)c2cc3nc(cc4[nH]c(cc5[nH]c(cc1n2)c(CCC(=O)O)c5C)c(CCC(=O)O)c4C)C(CCC(=O)O)=C3C [CP-I, Coproporphyrin-I]	10.6	about 3.8 fold		
CC1=C(CCC(=O)O)c2cc3nc(cc4[nH]c(cc5[nH]c(cc1n2)c(C)c5CCC(=O)O)c(CCC(=O)O)c4C)C(CCC(=O)O)=C3C [CP-III, Coproporphyrin-III]			< LLOQ	0.16 ± 0.05
